Data reported in PubChem BioAssay (Tox21).
Values joined by “and” are separate entries in the source; they are usually repeats but may differ in a detail not shown here. Identical values can stand only once. This list was built around the results that the source calls inconclusive (neither active nor inactive); the mix of calls is not that of the screen. A potency beside an inconclusive call is a rough fit, not a confirmed value. The source holds several records for some structures; these can differ, active in one and inactive in another. Active and inactive are the calls of the source. Unless noted, calls come from the whole dose curve; as a rule, active = well fitted curve in the direction sought with a large enough effect in the repeat runs; inconclusive = weak or mixed curves; inactive = no such curve, though single readings can be large; an effect the other way counts as inactive or inconclusive.

By UniProt entry, the sequences of proteins in these tests, tags left out. Where a name states a change or a piece, a line headed by the entry shows the natural chain unless it says otherwise.
UniProt P19793: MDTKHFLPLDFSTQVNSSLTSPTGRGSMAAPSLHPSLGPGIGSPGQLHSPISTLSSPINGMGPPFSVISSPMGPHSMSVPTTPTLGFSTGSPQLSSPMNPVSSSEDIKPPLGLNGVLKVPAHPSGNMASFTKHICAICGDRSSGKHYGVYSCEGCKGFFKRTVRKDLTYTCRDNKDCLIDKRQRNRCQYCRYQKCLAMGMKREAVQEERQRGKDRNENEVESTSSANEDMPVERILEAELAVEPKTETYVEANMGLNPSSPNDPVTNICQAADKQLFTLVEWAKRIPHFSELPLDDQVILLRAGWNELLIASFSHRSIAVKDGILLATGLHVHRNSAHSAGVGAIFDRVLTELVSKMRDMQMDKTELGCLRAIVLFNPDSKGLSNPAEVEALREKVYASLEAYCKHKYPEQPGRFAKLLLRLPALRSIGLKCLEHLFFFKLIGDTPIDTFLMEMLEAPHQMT

Tests used:
[1] = target: Retinoic acid receptor RXR-alpha (Homo sapiens) (UniProt P19793); assay: qHTS assay to identify small molecule agonists of the RXR signaling pathway (AID 1159527; calls by dose curve; note: nearly all actives have a fitted effect of over 35% in size; for activation: % is set by controls: 0 for no effect and ±100 for the full control effect); details: HEK293T RXRa-UAS-bla, beta-lactamase ratio, 16 h; activation: at 76.8 µM (top of the series) unless noted
How it was run: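 16 hr incubation of compound-treated RXR-alpha-UAS-bla HEK 293T cells (2% charcoal-stripped FBS, 37 C) preceded a 2 hr room-temperature LiveBLAzer FRET substrate step and blue/green fluorescence measurement.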

[2] = qHTS assay to identify small molecule antagonists of the retinoid acid receptor (RAR) signaling pathway - cell viability counter screen (AID 1159551); details: C3RL4 cells viability, ATP luminescence (CellTiter-Glo), 6 h; series mostly up to 92.4 µM; note: nearly all actives have a fitted effect of over 35% in size
How it was run: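 C3RL4 cells were seeded overnight at 37 C, then treated with compounds plus 1 uM (final) retinol for 6 h at 37 C. Viability was read as ATP by CellTiter-Glo luminescence after 30 min at room temperature.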

[3] = qHTS assay to identify small molecule agonists of the retinoic acid receptor (RAR) signaling pathway (AID 1159553); details: C3RL4 RARE luciferase reporter, agonist, 6 h; activation: at 73.3 µM (top of the series) unless noted; for activation: % is set by controls: 0 for no effect and ±100 for the full control effect
How it was run: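 C3RL4 cells carrying a RARE luciferase reporter were plated overnight at 37 C, then exposed to compounds in DMSO for 6 hr at 37 C and 5% CO2. Luminescence was read 30 min after luciferase reagent addition at room temperature.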

[4] = qHTS assay to identify small molecule antagonists of the retinoic acid receptor (RAR) signaling pathway (AID 1159552; note: nearly all actives have a fitted effect of over 50% in size); details: C3RL4 RARE luciferase reporter, retinol-stimulated, 6 h; series mostly up to 92.4 µM
How it was run: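 C3RL4 RARE-luc cells, overnight plating; retinol 1 uM final added right after compound; 6 hr 37 C; luciferase read at 30 min RT.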

[5] = qHTS assay to identify small molecule antagonists of the estrogen related receptor (ERR) signaling pathway - cell viability counter screen (AID 1224818); details: ERR reporter cell line viability counter screen; series mostly up to 46.1 µM;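 note: viability measured after 17.5 h of compound exposure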
How it was run: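 ERR reporter cells plated 6 h at 37 C/5% CO2, then compounds in DMSO pin-transferred and incubated 17.5 h at 37 C. Viability read as CellTiter-Fluor fluorescence after 30 min at 37 C.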

[6] = qHTS assay to identify small molecule antagonists of the estrogen related receptor (ERR) signaling pathway (AID 1224819; note: nearly all actives have a fitted effect of over 50% in size); details: ERR reporter cell line, luciferase inhibition; series mostly up to 46.1 µM
How it was run: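 ERR reporter cells were plated at 2,000 cells/well and left 6 h at 37 C/5% CO2 before pin-tool transfer of compounds in DMSO. After 18 h at 37 C, One-Glo was added and luminescence was read 30 min later at room temperature.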

[7] = qHTS assay to identify small molecule antagonists of the estrogen related receptor signaling pathway with the pleiotropic PPARgamma coactivator (PGC) cell viability counter screen (AID 1224822); details: ERR/PGC reporter cell line viability counter screen; series mostly up to 46.1 µM
How it was run: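 PGC/ERR cells were seeded at 2,000 cells/well, rested 6 h at 37 C/5% CO2, then given compounds in DMSO by pin tool and incubated 17.5 h at 37 C. Viability came from CellTiter-Fluor fluorescence after 30 min.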
Potency is the fitted concentration of half-maximal effect.

## Oc1ccc(Cl)cc1Sc1cc(Cl)ccc1O
[1]
  Potency: inconclusive: 4.89 µM [inhibitor, partial curve, poor fit] and inconclusive: 2.13 µM [inhibitor, partial curve]
[2]
  Potency: inconclusive: 54.4 µM [cytotoxic, partial curve] and inconclusive: 33.5 µM [cytotoxic, partial curve, poor fit]
[3]
  Potency: inconclusive: 26.6 µM [inhibitor, partial curve]

## CCc1c(C(=O)NN2CCCCC2)nn(-c2ccc(Cl)cc2Cl)c1-c1ccc(Br)cc1
[1]
  Potency: inconclusive: 49 µM [rising, partial curve, poor fit]
[4]
  Potency: inconclusive: 48.6 µM [inhibitor, partial curve]

## CN(C)[C@@H](CCOc1cccc2ccccc12)c1ccccc1
[1]
  Potency: inconclusive: 23.9 µM [inhibitor, partial curve, poor fit]
[2]
  Potency: inconclusive: 33.5 µM [cytotoxic, single point]
[3]
  Potency: inconclusive: 29.8 µM [inhibitor]

## C/C=C(/C(=C/C)c1ccc(OC(C)=O)cc1)c1ccc(OC(C)=O)cc1
[1]
  Potency: inconclusive: 10.7 µM [inhibitor, partial curve, poor fit]
[4]
  Potency: inconclusive: 33.5 µM [inhibitor]

## O=C(c1ccccc1)c1ccc(O)cc1O
[1]
  Potency: inconclusive: 22.3 µM and inconclusive: 49 µM [activator]
[4]
  Potency: active: 55.5 µM

## c1ccsc1
[1]
  activation: inconclusive: 13.3%
[4]
  Potency: inconclusive: 32.9 µM [inhibitor, partial curve, poor fit]
[3]
  Potency: inconclusive: 73.6 µM [activator, single point]

## Cc1cc(O)c2c(c1)C(=O)c1cc(O)cc(O)c1C2=O
[1]
  activation: inconclusive: -25.9%
[2]
  Potency: inconclusive: 27.3 µM [cytotoxic, partial curve, poor fit]
[3]
  Potency: active: 9.47 µM and inconclusive: 3.06 µM [activator, full curve, poor fit]
[5]
  Potency: inconclusive: 28.7 µM [cytotoxic]
[6]
  Potency: inconclusive: 33.5 µM [inhibitor, partial curve, poor fit]
[7]
  Potency: inconclusive: 22.8 µM [cytotoxic]

## CCCC(C(=O)OCCN(CC)CC)(c1ccccc1)c1ccccc1
[1]
  activation: inconclusive: -27.6% [at 35.3 µM]
[2]
  Potency: inconclusive: 33.5 µM [cytotoxic, partial curve, poor fit]
[5]
  Potency: inconclusive: 33.5 µM [cytotoxic, partial curve, poor fit]
[6]
  Potency: inconclusive: 33.5 µM [inhibitor]
[7]
  Potency: inconclusive: 27.6 µM [cytotoxic]

## CC(C)(C)CCCCCCOC(=O)c1ccccc1C(=O)OCCCCCCC(C)(C)C
[1]
  Potency: inconclusive: 11 µM [activator, full curve]
[4]
  Potency: inconclusive: 38.6 µM [inhibitor, single point]

## CCN(CC)CCSC(=O)C(c1ccccc1)c1ccccc1
[1]
  activation: inconclusive: -20% [at 35.3 µM]
[4]
  Potency: active: 26.6 µM

## O=c1oc2cc(O)ccc2c2oc3cc(O)ccc3c12
[1]
  Potency: inconclusive: 52.7 µM [fluorescent, single point]
[4]
  Potency: inactive
[3]
  Potency: active: 52.2 µM

## CN1CCN(C2Cc3ccccc3Sc3ccc(Cl)cc32)CC1 (stereo unspecified)
[1]
  activation: inconclusive: -18.7% [at 35.3 µM]
[4]
  Potency: active: 29.8 µM
[3]
  Potency: inconclusive: 23.7 µM [inhibitor, partial curve, poor fit]
[6]
  Potency: inconclusive: 32.2 µM [inhibitor]
[7]
  Potency: inconclusive: 29.8 µM [cytotoxic]

## C=CC(=O)Nc1cc2c(Nc3ccc(F)c(Cl)c3)ncnc2cc1OCCCN1CCOCC1
[1]
  Potency: inconclusive: 2.39 µM
[2]
  Potency: inconclusive: 9.44 µM [cytotoxic, full curve]
[3]
  Potency: inconclusive: 8.41 µM [inhibitor, full curve]

## Cc1c(Cl)cccc1Nc1ccccc1C(=O)O
[1]
  Potency: inconclusive: 12 µM [rising, partial curve]
[4]
  Potency: inactive
[3]
  Potency: inactive

## O=c1[nH]nc(-c2ccc([N+](=O)[O-])o2)o1
[1]
  Potency: inconclusive: 1.38 µM [inhibitor, full curve]
[3]
  activation: inconclusive: 8.57% [phenotype inactive]
